According to patent US7915276B2, “Berberrubine derivatives having antifungal activities” (priority 2006, dated 2011):
Some of these results come from one statement about several compounds together. Some ranges recur; such a range may be that of the whole group of compounds.

system: human pathogenic fungi; experiment: Antifungal activity against human pathogenic fungi (summary statements); type: cell-based; conditions: compared with berberrubine (MIC=256-512 μg/mL)
Excerpt: Candida albicans ATCC 10231, Candida lusitaniae ATCC 42720, Candida krusei ATCC 6258, Candida tropicalis ATCC 13803, Candida glabrata ATCC 48435, Candida parapsilosis ATCC 34136, Cryptococcus neoformans ATCC 36556, Aspergillus fumigatus ATCC 16424, Aspergillus flavus ATCC 64025, Aspergillus terreus ATCC 46941 and Mucor ramosissimus ATCC 90286 strains for the MIC (minimum inhibitory concentration) measurement were obtained from ATCC (American Type Culture Collection) in the U.S. The Candida albicans A207(clinical isolate) strain was used by isolating it from the patients.
The determination of MIC was performed according to the NCCLS (National Committee for Clinical Laboratory Standard) method. Each test sample solution was diluted two-fold and inoculated with a fungal suspension to reach a final inoculum size of 5×10^2 to 2.5×10^3 cell/mL. The Cryptococcus neoformans strain was cultured in the RPMI 1640 medium for 72 hours. Other strains were cultured for 48 hours.

Substance	antifungal activities (MIC) relative to berberrubine
13-(4-Isopropylbenzyl)-9-O-butylberberrubine chloride [Compound No. 50]	500-1,000 times
13-(4-Isopropylbenzyl)-9-O-butylberberrubine iodide [Compound No. 18]	500-1,000 times
13-(4-Isopropylbenzyl)-9-O-propylberberrubine chloride [Compound No. 49]	500-1,000 times
13-(4-Isopropylbenzyl)-9-O-propylberberrubine iodide [Compound No. 17]	500-1,000 times
13-(4-tert-Butylbenzyl)-9-O-butylberberrubine chloride [Compound No. 40]	500-1,000 times
13-(4-tert-Butylbenzyl)-9-O-butylberberrubine iodide [Compound No. 8]	500-1,000 times
13-(4-tert-Butylbenzyl)-9-O-propylberberrubine chloride [Compound No. 39]	500-1,000 times
13-(4-tert-Butylbenzyl)-9-O-propylberberrubine iodide [Compound No. 7]	500-1,000 times
